From the supplement of paper PMC12823440, “Inhibitors supercharge kinase turnover through native proteolytic circuits” (Nature, 2025)
Where a name gives a salt, the structure may show the parent alone. This is one part of the list. The calls rarely recur for the same compound in another form.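 Kinases, fused to nanoluciferase, were expressed in K562 cells; luminescence was measured every 4 h from 2 to 18 h as percent of control (DMSO = 100%, positive control = 0%). A time point is decreased if signal falls significantly (2 sigma). Hits were called by the authors by a rule that is not shown; the count of time points alone does not decide it.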

The chains behind the UniProt entries cited, without tags or fusion partners. Where a name states a change or a piece, a line headed by the entry shows the natural chain unless it says otherwise.
UniProt Q13546: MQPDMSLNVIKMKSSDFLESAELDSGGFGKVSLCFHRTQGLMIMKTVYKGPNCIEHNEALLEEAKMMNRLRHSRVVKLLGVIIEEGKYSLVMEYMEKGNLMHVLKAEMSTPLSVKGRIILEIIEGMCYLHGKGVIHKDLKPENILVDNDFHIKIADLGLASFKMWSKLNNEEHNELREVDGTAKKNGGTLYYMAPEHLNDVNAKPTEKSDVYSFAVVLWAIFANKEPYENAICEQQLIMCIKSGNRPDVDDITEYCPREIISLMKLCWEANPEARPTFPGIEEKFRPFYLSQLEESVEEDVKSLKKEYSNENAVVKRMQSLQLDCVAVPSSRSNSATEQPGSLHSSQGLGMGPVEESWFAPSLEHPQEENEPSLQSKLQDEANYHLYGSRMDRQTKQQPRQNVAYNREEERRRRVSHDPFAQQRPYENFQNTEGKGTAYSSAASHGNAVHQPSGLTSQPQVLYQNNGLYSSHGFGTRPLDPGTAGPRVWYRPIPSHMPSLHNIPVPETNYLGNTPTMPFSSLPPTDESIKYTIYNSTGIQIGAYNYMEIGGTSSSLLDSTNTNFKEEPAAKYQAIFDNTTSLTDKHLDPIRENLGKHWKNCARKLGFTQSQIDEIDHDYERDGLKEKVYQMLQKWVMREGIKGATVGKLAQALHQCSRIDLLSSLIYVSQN

Biological target: RIPK1 (UniProt Q13546)
Assay: kinase-Nluc reporter destabilization hit call (1 = scored as downregulated) (binary); higher = compound decreases kinase abundance
Conditions: 10 µM; K562; 2-18 h

kinase-Nluc reporter destabilization hit call, inactive:
CNC(=O)c1ccc(Nc2ncc(C(F)(F)F)c(NCc3nccnc3N(C)S(C)(=O)=O)n2)cc1 [Defactinib (hydrochloride)] 0, C#Cc1cccc(Nc2ncnc3cc4c(cc23)OCCOCCOCCO4)c1 [Icotinib (Hydrochloride)] 0, CNC(=O)c1ccc(Nc2ncc(C(F)(F)F)c(NCc3nccnc3N(C)S(C)(=O)=O)n2)cc1 [Defactinib] 0, N#CCNC(=O)c1ccc(-c2ccnc(Nc3ccc(N4CCOCC4)cc3)n2)cc1 [Momelotinib sulfate] 0, N#CCC1(n2cc(-c3ncnc4[nH]ccc34)cn2)CN(C2CCN(C(=O)c3ccnc(C(F)(F)F)c3F)CC2)C1 [Itacitinib] 0, CC(=O)Nc1cccc(-n2c(=O)n(C3CC3)c(=O)c3c(Nc4ccc(I)cc4F)n(C)c(=O)c(C)c32)c1 [Trametinib] 0, C[C@H](CCC(=O)NCCS(=O)(=O)O)[C@H]1CC[C@H]2[C@@H]3[C@@H](O)C[C@@H]4C[C@H](O)CC[C@]4(C)[C@H]3CC[C@]12C [Tauroursodeoxycholate (sodium)] 0, Cc1cccc(/C=N/Nc2cc(N3CCOCC3)nc(OCCc3ccccn3)n2)c1 [Apilimod (mesylate)] 0, N#CCNC(=O)c1ccc(-c2ccnc(Nc3ccc(N4CCOCC4)cc3)n2)cc1 [Momelotinib] 0, C[S+]([O-])c1ccc(-c2nc(-c3ccc(F)cc3)c(-c3ccncc3)[nH]2)cc1 (stereo not given) 0
